Source: patent US20030049831A1
These are yes or no findings as the source states them, for the method shown. Some results given as binding are weak or reduced against the parent protein; the word gives no strength.

Sequences of proteins named here, by UniProt entry; tags and fusion partners are left off. A change or cut given only in a name is not applied to a line headed by its entry. Residues count along the entry.
UniProt P08603, residues 19-1231: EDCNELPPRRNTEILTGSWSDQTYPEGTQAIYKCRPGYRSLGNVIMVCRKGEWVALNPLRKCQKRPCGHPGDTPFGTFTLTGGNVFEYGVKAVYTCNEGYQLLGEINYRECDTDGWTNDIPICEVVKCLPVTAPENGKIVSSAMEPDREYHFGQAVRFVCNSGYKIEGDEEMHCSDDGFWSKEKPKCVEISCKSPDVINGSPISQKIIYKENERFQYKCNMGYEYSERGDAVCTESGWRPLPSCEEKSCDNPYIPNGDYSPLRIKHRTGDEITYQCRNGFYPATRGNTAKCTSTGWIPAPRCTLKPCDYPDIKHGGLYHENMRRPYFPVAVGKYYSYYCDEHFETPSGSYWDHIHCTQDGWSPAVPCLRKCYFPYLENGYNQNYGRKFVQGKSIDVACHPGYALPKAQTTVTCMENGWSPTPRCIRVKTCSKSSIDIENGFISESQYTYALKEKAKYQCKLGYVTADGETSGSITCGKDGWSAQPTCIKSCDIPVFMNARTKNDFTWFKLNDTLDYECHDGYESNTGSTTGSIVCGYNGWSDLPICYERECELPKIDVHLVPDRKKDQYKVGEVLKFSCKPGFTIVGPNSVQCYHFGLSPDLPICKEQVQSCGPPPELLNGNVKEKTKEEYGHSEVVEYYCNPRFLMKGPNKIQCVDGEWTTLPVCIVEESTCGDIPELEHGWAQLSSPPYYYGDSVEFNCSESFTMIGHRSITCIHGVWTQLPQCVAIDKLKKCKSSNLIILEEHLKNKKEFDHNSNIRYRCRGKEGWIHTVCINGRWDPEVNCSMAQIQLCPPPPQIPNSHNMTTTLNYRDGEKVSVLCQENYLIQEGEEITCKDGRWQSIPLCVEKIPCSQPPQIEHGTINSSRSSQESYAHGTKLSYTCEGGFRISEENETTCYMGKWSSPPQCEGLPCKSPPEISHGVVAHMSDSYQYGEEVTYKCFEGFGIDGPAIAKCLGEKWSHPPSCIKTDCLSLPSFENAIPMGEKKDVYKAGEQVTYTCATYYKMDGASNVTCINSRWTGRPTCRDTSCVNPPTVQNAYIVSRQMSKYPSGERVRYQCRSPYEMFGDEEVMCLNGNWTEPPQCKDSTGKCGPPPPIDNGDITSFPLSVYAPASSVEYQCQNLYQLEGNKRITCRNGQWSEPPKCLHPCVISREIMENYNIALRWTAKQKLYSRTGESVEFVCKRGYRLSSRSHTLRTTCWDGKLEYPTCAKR
UniProt P01024: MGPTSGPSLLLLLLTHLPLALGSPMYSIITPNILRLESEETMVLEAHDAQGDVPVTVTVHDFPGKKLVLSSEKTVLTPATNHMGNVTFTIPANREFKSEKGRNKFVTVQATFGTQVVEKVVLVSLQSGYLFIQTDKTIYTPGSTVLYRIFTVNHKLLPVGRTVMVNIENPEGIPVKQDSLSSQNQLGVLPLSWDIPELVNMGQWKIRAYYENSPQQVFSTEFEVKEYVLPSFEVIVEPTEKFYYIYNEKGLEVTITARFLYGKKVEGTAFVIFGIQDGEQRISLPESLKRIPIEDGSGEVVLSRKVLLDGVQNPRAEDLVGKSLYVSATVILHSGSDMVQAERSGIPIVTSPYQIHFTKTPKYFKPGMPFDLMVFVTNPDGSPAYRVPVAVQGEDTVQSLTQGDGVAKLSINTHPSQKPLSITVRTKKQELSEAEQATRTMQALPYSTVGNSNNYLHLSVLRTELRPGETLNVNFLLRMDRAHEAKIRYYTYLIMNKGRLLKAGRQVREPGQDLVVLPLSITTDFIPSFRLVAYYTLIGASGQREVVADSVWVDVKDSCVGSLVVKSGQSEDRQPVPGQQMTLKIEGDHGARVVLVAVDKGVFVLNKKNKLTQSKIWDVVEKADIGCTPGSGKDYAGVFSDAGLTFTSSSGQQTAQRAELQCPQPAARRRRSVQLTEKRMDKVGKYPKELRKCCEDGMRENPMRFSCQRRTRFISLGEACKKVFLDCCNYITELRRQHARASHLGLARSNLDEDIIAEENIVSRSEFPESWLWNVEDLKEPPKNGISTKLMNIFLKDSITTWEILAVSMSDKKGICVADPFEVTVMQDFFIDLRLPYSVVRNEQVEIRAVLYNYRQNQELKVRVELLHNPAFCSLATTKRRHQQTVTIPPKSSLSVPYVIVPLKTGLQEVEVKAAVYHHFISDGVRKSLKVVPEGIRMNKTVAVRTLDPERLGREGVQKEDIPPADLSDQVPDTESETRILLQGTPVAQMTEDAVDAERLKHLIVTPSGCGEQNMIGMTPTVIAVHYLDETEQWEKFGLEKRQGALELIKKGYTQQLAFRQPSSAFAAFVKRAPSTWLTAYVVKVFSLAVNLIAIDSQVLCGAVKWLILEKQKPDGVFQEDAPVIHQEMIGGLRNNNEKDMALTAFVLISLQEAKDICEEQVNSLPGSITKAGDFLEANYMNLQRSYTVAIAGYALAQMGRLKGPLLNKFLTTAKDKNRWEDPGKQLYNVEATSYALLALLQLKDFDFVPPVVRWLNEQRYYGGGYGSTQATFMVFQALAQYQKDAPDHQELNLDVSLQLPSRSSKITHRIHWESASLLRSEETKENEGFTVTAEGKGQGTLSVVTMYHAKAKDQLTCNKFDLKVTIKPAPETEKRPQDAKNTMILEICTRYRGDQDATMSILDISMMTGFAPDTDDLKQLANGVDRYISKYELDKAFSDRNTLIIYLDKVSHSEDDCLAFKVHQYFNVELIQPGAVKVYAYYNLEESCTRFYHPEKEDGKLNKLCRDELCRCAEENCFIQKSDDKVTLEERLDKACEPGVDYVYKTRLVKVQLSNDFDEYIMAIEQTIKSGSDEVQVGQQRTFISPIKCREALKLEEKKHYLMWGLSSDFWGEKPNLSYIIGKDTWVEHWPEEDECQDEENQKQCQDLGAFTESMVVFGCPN

Target: Factor H (Sigma) (UniProt P08603)
Assay: ELISA, Factor H coated at 50 to 0.4 pmol/well, C3b at 10 µg/well, detected with polyclonal anti-C3

- binding: binds
Substance: human C3b (from UniProt P01024 749-1663; P01024 23-667)
